A: 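Whole-parasite assay of Trypanosoma brucei over 72 hours; the read-out is not stated. Compounds at 30 µM. Direction is inferred from retests: higher values go with stronger inhibition. Values scatter widely below zero; nearly all retest evidence comes from the higher of the two concentrations used. Size under these conditions: about 64,000 compounds, about 940 of them at 50% or above in at least one test.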
B: 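Cell assay of Leishmania donovani living inside macrophages; the read-out is not stated. Tested at 30 µM. The record gives no direction; compounds that gave an IC50 in retests scored well above the rest, so higher reads as stronger inhibition. About 69,000 compounds were tested under these conditions; 1.5% (about 1,000) showed 50% or more at least once.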

The filed quantity is “Percent Effect” (%).
The controls that fix the scale are not given in the record; negative values are as filed.
Compounds were drawn at random from those tested, without regard to their results.
Two or more numbers in one place are separate tests of the same structure; such repeats can differ widely.
A dash means the value is not listed here; it may have been measured.

SMILES	A	B
CC(Cn1cccn1)n1cnc2ccc(F)cc2c1=O (stereo not shown)	-1.187	-7.946
COc1cccc(CNCc2cccnc2)c1	-	23.24
Cc1c2ncn(CC(=O)c3ccccc3)c(=O)c2nn1C	6.698	17.86
Cc1cn2c(n1)CCC(NC(=O)CCC1CC1)C2 (stereo not shown)	2.685	1.685
Cn1cc(NC(=O)CCc2ccsc2)ccc1=O	-34.78	8.214
CC(=O)N1CCC2(CC1)CC(NS(C)(=O)=O)c1ccccc1O2 (stereo not shown)	-	6.966
CN(C)C(=O)N1CCC2(CCCN(CCOc3ccccc3)C2)C1.O=C(O)C(F)(F)F (stereo not shown)	-45.38	3.736
Cn1cc(NC(=O)N2CCC2c2ccccc2)ccc1=O (stereo not shown)	-2.702	13.15
Cc1ccc(C(C(=O)O)N2CCCN(Cc3ccccn3)CC2)c(F)c1 (stereo not shown)	-42.99	23.66
Cc1ncncc1-c1ccnc(NC(C)C)n1	-16.14	15.39 and 0.03097
[H][C@@]12CCN(S(C)(=O)=O)CC[C@]1(C(=O)Nc1ccccc1)CCN2C(C)=O	-9.786	9.189
CS(=O)(=O)NCCNC(=O)NC1(c2ccc(Cl)cc2)CCC1	-17.12	-10.97
O=C(NCCNc1ncccn1)c1ccc(Br)cc1	17.12	23.68
CCn1cnnc1C1CCN(C(=O)COc2ccccc2OC)CC1	1.944	-12.15
Cc1ccc(Cl)c(CN2CCC3(CC2)C(C(=O)O)CC(=O)N3C)c1F (stereo not shown)	-83.13	21.8
CCSCCn1cc(-c2nccs2)nn1	16.47	2.428
Cc1ccc(NCc2ccccc2C#N)cc1-n1cnnn1	-32.25	15.45
CN1CC(=O)N(c2cnn(C)c2)CC12CCN(Cc1ccccc1)C2.O=C(O)C(F)(F)F.O=C(O)C(F)(F)F (stereo not shown)	-2.029	-5.292
CCSCCNC(=O)C(c1cccc(C)c1)N(C)C (stereo not shown)	-10.29	11.18
Cc1ccc(NC(=O)C2CSCN2C(=O)c2cnsn2)c(C)c1 (stereo not shown)	-1.609	-2.433
CNc1[nH]nc(N)c1C(=O)Nc1ccccc1	-24.04	0.315
O=C(O)C(F)(F)F.O=C(O)C(F)(F)F.[H][C@@]12CCN(Cc3ccc(C)o3)C[C@]1([H])[C@@H](CN1CCCC1)OC2	-1.012	40.7
CC(=O)N1CCCCC1c1cc(CO)[nH]n1 (stereo not shown)	13.45	28.3
CCc1nnc(CN(C)c2nc(C3CCCC3)nc3c2cnn3C)o1	19.85	42.17
O=C(c1cccnc1)N(Cc1ccncc1)C1CC1	-21.55	2.981
CCC(CO)N(C/C(C)=C/c1ccco1)Cc1ccco1 (stereo not shown)	-55.69	-6.185
CCNC(=O)[C@@H]1C[C@@H](N)CN1Cc1ccc(-c2ccccc2C#N)o1	6.826	-1.424
CS(=O)(=O)N1CCC(CNc2c(Cl)cccc2C#N)CC1	0.9338	24.98
CC(NC(=O)NCCCO)c1ccc2c(c1)OCCO2 (stereo not shown)	1.238	14.2
CCS(=O)(=O)c1ccc(N2CCC(NC(C)=O)CC2)cc1	-36.06	-2.976
CCc1ccc(C2CC(=O)Nc3cc(OC)c(NS(C)(=O)=O)cc32)o1 (stereo not shown)	-12.15	-14.18
CCNc1cc2c(nn1)CCN(C(=O)c1c(C)noc1C)C2	-15.03	23.23
COc1ccc(OC2CCN(C(=O)C3CCCN(C)C3)CC2)cc1 (stereo not shown)	-32.72	4.355
Cc1ccc(C(=O)N2CCC3(CC2)COC(COc2ccccn2)C3)o1.O=C(O)C(F)(F)F (stereo not shown)	15.32	-68.01
[H][C@]12CC[C@]([H])(CN(C3Cc4ccccc4C3)C1)N(C(=O)CSC)C2	-25.94	6
CCOC(=O)c1coc(N2CCN(Cc3cccc(OC)c3)C(=O)C2)n1	-66.92	-9.806
CCn1nc(C)c(NC(=O)CCn2ncc3cc(C)ccc32)c1C	-14.34	-23.96
COc1cccc(S(=O)(=O)N2CCOC(C)(C(N)=O)C2)c1 (stereo not shown)	-8.502	2.19
Cc1ccc(OCC(C)NC(=O)CN(C)c2ccc(C#N)cn2)cc1 (stereo not shown)	-17.9	-3.31
CCN(CC)C1CCN(C(=O)c2cc(-n3cccn3)ccc2Cl)CC1	5.014	0.0295
Cc1ccc(-c2csc(-c3cccc(C(=O)O)c3)n2)cc1	-89.65	2.43
O=C(O)C(F)(F)F.O=c1ccc2c([nH]1)CCC(NCc1ccc3c(c1)OCO3)C2 (stereo not shown)	-24.67	-5.282
O=C(O)C(F)(F)F.O=C(O)C(F)(F)F.[H][C@]12CCC[C@@H](CNC(C)(C)C)[C@@]1([H])CN(Cc1csnn1)C2	17.64	21.78
CC(=O)c1cccc(-c2nc3c([nH]2)CCNC3)c1F	17.48	-5.893
COc1cccc(-c2noc(-c3ccc(NCC(C)O)nc3)n2)c1OC (stereo not shown)	19.61	17.97
[H][C@@]12CCN(C[C@@H]1CN1CCOCC1)[C@@H](CNC(=O)Nc1ccccc1)C2	-6.842	-7.001
CN1CCCC1c1cncc(C(=O)NCCN2CCCCC2)n1 (stereo not shown)	3.097	34.25
CCCc1nc(C)c(C(=O)NC2CCN(c3ncccn3)CC2)s1	-14.84	12.32
CCc1nnsc1C(=O)NCCC1CN(C(C)C)CCO1 (stereo not shown)	-57.79	-3.335
O=C(c1cc(-n2cnnn2)ccc1Cl)N1CCN(c2ccccc2)CC1	-15.12	11.24
O=c1[nH]ncc(NCCOc2cccc(Br)c2)c1Cl	-0.586	33.92
O=C(O)C(F)(F)F.[H][C@@]12CN(C(=O)c3ccsc3)C[C@]1([H])OCCN2C(C)C	34.46	11.26
COc1cc(N(C)CCCn2nc(C)cc2C)ncn1	-70.58	15.96
Cc1cccc(CN2Cc3ccnn3CC(COCC3CC3)C2)n1.O=C(O)C(F)(F)F (stereo not shown)	22.64	18.48
O=C(O)C(F)(F)F.O=C(O)C(F)(F)F.[H][C@@]12CN(CCOC)CCO[C@]1([H])CN(Cc1ccc(C)o1)C2	-58.97	23.4
O=C(O)C(F)(F)F.O=C(O)C(F)(F)F.OCCN1CC2(CCN(CC3CC3)CC2)c2ccccc21	101.2	75.39
Cc1ncc(CN2CCOC(c3ccc(-c4cc[nH]n4)cn3)C2)s1 (stereo not shown)	-10.46	-4.566 and 15.87
COc1ccc(C(C)NC(=O)Nc2nnc(C)s2)c(OC)c1 (stereo not shown)	-14.09	23.52
N#Cc1ccc(CN(CC(N)=O)C2CCCC2)cc1	-12.59	8.701
Cc1noc(C)c1NC(=O)Cn1cc(Br)ccc1=O	-48.04	-2.742
[H][C@]12CCN(c3ccccc3)C[C@@]1([H])OCCN(C(=O)c1ccco1)C2	-19.3	16.06
CC(NC(=O)CSCC(N)=O)c1ccc(Oc2ccccc2)cc1 (stereo not shown)	-22.26	-2.602
O=C(CN1CC(c2nc(-c3ccco3)no2)C1)NCC1CCCO1.O=C(O)C(=O)O (stereo not shown)	-24.99	1.496 and 20.92
CCc1ccc2nc(C)cc(C(=O)NC3CCNC3=O)c2c1 (stereo not shown)	-61.8	16.3

The last 7 entries again:

{"smiles": "COc1ccc(C(C)NC(=O)Nc2nnc(C)s2)c(OC)c1", "stereo": "stereo not shown", "A": -14.09, "B": 23.52}
{"smiles": "N#Cc1ccc(CN(CC(N)=O)C2CCCC2)cc1", "A": -12.59, "B": 8.701}
{"smiles": "Cc1noc(C)c1NC(=O)Cn1cc(Br)ccc1=O", "A": -48.04, "B": -2.742}
{"smiles": "[H][C@]12CCN(c3ccccc3)C[C@@]1([H])OCCN(C(=O)c1ccco1)C2", "A": -19.3, "B": 16.06}
{"smiles": "CC(NC(=O)CSCC(N)=O)c1ccc(Oc2ccccc2)cc1", "stereo": "stereo not shown", "A": -22.26, "B": -2.602}
{"smiles": "O=C(CN1CC(c2nc(-c3ccco3)no2)C1)NCC1CCCO1.O=C(O)C(=O)O", "stereo": "stereo not shown", "A": -24.99, "B": "1.496 and 20.92"}
{"smiles": "CCc1ccc2nc(C)cc(C(=O)NC3CCNC3=O)c2c1", "stereo": "stereo not shown", "A": -61.8, "B": 16.3}

Measurements from “University of Dundee, Small-Polar-MMV Screening Library” (2021), ChEMBL document CHEMBL3988442.